# Experimental data from ChEMBL document CHEMBL3600372, “Scapairrins A-Q, Labdane-Type Diterpenoids from the Chinese Liverwort Scapania irrigua and Their Cytotoxic Activity” (J Nat Prod, 2015).
# System: A549
# Test: Cytotoxicity against human A549 cells after 24 hrs by MTT assay
# Assay type: functional, cell-based
# Settings: A549, 24 h
compound,measurement,value
COc1cccc2c1C(=O)c1c(O)c3c(c(O)c1C2=O)C[C@@](O)(C(=O)CO)C[C@@H]3O[C@H]1C[C@H](N)[C@H](O)[C@H](C)O1 [DOXORUBICIN],IC50,800 nM
